From publication PMC4598761 come the findings set out here.

No constants are given. Whether binding was seen depends on the method and setting. Tags and fused reporters may be left off the sequences shown.

The target in the assay is T1, His-GBA3-HA (recombinant epitope-tagged cytosolic β-glycosidase GBA3) (human) (UniProt Q9H227).
T1 sequence: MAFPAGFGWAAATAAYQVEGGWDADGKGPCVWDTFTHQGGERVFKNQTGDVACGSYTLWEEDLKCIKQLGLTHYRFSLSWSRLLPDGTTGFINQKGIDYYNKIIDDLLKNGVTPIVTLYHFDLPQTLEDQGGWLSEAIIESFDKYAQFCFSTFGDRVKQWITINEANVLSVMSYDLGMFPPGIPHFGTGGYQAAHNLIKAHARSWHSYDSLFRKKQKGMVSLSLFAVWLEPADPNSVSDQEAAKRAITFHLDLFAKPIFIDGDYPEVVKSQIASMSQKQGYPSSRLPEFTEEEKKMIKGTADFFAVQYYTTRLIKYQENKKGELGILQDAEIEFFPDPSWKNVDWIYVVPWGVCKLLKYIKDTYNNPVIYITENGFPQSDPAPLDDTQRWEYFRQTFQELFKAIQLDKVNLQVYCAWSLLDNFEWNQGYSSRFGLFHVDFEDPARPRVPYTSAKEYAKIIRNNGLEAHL
In words: pull-down; purified recombinant proteins mixed overnight at 4 °C (1.5 mg/mL each), precipitated with 20 μL Ni-Sepharose 6 Fast Flow for 1 h at 4 °C (His-tagged protein held), washed three times with PBS, western blotting; both purified.

For the substance GST alone, the binding result is reported as “no binding”.
